Measured values as given in publication PMC5824958.
These are yes or no findings as the source states them, for the method shown. In cells and extracts the contact can be indirect. These calls come from enrichment with a bait or labelling near it, and not all partners need be listed.

The chains behind the UniProt entries cited, without tags or fusion partners. Residues count along the entry.
UniProt P19491, residues 22-883: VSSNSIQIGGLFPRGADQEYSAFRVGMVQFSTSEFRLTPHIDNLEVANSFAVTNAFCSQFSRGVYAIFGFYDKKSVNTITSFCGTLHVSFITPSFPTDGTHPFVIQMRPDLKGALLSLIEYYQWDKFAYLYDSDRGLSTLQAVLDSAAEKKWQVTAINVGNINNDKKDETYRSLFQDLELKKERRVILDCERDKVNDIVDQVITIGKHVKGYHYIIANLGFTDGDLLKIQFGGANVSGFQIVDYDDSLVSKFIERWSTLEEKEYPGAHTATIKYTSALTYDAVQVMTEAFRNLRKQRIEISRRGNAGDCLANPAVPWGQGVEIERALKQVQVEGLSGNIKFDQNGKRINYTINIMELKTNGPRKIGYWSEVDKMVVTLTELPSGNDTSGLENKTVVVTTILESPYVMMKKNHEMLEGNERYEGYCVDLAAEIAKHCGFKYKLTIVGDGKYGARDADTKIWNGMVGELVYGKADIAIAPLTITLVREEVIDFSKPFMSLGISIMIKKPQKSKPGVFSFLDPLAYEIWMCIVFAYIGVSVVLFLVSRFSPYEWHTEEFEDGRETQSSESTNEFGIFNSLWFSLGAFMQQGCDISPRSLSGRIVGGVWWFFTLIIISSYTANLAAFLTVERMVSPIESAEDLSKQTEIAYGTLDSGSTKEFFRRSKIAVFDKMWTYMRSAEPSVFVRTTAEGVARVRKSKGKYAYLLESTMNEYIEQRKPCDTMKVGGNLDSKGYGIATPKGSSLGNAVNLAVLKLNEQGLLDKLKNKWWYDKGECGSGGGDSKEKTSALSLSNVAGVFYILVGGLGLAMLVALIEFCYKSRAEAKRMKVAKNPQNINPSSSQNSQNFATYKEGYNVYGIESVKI
UniProt P59215: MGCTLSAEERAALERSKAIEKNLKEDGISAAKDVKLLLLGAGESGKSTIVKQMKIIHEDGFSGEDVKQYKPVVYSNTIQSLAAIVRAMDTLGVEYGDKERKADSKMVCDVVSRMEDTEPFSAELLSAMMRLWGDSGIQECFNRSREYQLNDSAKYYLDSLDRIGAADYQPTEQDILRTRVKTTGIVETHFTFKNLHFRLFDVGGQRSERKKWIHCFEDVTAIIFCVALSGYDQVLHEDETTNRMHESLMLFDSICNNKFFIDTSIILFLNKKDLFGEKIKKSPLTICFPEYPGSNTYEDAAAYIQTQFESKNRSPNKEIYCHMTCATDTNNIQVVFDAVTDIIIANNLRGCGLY
UniProt Q64568: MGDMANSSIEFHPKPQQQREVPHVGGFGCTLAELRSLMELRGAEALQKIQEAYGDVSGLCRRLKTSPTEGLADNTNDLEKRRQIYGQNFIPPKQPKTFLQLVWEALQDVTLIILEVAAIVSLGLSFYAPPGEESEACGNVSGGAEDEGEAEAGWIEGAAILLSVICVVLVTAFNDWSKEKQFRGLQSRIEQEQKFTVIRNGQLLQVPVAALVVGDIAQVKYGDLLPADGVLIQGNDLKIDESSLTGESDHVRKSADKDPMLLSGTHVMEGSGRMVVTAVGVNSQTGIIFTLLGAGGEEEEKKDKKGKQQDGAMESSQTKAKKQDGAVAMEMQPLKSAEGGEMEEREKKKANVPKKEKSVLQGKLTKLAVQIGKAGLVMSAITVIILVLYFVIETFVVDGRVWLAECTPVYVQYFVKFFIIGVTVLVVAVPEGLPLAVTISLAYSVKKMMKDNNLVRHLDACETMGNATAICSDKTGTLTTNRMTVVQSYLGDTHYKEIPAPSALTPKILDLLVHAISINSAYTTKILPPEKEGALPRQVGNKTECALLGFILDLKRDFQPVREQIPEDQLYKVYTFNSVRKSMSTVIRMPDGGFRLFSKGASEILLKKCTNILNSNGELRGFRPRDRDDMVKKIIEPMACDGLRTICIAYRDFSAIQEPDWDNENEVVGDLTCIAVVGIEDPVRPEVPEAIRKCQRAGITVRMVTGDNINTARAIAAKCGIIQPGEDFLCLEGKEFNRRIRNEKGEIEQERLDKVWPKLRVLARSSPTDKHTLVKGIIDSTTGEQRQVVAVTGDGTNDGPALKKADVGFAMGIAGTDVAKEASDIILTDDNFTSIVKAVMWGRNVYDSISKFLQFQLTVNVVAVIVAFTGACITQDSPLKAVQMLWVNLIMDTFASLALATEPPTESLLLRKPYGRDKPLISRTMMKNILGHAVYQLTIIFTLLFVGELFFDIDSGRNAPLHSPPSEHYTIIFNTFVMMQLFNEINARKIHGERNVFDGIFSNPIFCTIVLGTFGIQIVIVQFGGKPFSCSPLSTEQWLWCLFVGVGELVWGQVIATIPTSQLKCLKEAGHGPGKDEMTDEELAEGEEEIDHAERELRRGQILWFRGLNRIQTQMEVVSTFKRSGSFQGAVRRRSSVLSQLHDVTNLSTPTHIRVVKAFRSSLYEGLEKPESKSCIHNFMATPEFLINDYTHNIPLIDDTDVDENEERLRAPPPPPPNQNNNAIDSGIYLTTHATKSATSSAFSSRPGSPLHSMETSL
UniProt P07825: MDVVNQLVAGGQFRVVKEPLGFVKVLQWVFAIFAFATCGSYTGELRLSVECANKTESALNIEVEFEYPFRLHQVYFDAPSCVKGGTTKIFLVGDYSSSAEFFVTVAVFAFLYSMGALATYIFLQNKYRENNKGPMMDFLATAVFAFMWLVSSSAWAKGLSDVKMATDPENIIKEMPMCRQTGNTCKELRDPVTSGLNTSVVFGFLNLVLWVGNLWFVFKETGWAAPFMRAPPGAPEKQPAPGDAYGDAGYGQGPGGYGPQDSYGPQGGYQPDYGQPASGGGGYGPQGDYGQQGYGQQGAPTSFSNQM
UniProt Q62950: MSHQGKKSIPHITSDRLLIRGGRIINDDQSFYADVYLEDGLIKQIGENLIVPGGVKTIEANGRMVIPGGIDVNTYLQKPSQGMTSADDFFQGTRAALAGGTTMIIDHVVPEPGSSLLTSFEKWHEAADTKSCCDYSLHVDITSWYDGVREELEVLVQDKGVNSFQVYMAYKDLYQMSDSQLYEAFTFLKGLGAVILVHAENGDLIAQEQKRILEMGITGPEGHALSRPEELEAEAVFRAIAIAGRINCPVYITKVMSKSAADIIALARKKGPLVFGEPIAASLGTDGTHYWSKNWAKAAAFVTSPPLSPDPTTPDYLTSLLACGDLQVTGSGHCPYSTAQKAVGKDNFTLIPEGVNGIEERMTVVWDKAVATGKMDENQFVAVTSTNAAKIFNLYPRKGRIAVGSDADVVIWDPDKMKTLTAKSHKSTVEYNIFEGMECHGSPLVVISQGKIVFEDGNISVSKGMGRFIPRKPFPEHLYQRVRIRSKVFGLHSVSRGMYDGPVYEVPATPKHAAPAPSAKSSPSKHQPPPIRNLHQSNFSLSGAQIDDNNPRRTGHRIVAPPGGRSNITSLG
UniProt P97836: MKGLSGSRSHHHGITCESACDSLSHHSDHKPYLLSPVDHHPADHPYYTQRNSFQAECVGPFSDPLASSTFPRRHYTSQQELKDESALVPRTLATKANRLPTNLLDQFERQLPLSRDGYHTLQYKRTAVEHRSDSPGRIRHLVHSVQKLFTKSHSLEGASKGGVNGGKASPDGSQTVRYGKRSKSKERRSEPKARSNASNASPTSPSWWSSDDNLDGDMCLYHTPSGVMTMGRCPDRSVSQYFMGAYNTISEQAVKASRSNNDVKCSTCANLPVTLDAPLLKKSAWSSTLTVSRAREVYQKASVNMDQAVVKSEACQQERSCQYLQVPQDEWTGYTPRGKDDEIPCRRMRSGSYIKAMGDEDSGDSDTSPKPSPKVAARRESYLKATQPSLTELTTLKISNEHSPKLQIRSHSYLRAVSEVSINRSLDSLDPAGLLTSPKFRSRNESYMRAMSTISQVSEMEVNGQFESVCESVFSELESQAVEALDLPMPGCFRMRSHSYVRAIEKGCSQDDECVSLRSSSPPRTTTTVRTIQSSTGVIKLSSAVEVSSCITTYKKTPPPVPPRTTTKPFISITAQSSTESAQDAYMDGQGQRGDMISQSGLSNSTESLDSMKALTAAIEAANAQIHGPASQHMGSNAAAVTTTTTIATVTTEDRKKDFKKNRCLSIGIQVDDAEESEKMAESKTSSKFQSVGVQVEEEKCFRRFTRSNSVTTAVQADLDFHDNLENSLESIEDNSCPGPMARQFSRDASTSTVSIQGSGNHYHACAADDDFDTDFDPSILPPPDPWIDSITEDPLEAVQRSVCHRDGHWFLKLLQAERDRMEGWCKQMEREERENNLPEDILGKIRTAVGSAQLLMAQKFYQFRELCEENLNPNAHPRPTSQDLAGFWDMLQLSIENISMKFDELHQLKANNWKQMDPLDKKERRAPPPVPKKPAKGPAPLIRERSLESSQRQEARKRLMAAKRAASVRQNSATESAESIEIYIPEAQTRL
UniProt P13596, residues 20-858: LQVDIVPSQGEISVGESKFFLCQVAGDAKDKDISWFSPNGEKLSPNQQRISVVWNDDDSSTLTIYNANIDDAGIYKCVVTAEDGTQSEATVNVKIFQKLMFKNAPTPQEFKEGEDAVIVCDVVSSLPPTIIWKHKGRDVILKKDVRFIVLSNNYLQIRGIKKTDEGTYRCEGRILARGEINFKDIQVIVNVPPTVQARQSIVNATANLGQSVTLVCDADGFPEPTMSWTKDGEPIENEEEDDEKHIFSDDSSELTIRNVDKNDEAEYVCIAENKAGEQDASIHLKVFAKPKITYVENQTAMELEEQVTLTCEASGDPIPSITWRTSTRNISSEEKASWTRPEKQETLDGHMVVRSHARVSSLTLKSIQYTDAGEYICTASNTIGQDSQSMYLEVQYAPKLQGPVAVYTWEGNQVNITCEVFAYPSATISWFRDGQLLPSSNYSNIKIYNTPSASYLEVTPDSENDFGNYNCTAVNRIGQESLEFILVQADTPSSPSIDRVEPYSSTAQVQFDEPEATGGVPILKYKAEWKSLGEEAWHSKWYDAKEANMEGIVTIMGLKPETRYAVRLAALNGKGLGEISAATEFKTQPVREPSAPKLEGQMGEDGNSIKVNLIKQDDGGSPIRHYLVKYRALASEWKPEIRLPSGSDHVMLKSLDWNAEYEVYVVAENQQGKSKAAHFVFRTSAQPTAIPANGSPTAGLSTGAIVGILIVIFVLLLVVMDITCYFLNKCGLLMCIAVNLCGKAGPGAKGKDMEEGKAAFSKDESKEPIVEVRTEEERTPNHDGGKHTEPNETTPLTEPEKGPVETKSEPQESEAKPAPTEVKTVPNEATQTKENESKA
UniProt P21707: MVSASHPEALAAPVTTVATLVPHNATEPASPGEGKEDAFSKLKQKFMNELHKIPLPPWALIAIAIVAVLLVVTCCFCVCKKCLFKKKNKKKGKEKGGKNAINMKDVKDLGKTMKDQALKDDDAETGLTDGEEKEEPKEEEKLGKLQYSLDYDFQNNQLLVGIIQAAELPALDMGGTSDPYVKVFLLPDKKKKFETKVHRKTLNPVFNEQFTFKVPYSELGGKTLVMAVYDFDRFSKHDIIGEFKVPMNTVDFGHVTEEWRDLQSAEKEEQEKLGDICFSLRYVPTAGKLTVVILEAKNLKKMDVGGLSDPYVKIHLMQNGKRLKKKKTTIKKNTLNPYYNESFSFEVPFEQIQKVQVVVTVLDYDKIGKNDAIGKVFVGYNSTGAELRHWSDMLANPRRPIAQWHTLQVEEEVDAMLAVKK
UniProt P62762: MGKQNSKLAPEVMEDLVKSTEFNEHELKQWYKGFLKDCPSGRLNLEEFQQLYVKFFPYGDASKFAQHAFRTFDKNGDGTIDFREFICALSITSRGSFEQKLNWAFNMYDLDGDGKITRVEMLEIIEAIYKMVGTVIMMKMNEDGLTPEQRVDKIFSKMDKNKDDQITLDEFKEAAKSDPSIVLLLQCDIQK

Target: T1, BRI2 (integral membrane protein 2B) (rat (endogenous in brain)) (UniProt Q5XIE8)
T1 sequence: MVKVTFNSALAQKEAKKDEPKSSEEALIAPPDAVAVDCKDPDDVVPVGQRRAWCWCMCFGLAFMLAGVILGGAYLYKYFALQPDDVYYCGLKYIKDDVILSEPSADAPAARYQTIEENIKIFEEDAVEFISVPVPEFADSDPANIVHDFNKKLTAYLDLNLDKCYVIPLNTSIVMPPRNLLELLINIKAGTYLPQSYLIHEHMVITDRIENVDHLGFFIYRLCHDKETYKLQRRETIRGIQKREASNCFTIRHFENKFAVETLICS
Assay: affinity purification with mass spectrometry; mouse anti-BRI2 antibody (N-terminal region) on Dynabeads Protein G; pre-cleared rat cerebral cortex, hippocampus and cerebellum lysates (50 mM Tris-HCl pH 8.0, 120 mM NaCl, 4% CHAPS), overnight at 4 °C; co-precipitated proteins identified by nano-HPLC-MS/MS; hits absent from the two mock IPs or with a PSM ratio >= 2.0

Substance	binding
Calcium/calmodulin-dependent protein kinase type II subunit alpha (from UniProt P11275 1-478)	binds
Calcium/calmodulin-dependent protein kinase type II subunit beta (from UniProt P08413 1-542)	binds
Dihydropyrimidinase-related protein 4 (from UniProt Q62951 1-564)	binds
Glial fibrillary acidic protein (from UniProt P47819 1-430)	binds
Glutamate receptor 2 (from UniProt P19491 22-883)	binds
Guanine nucleotide-binding protein G (from UniProt P59215 1-354)	binds
Homer protein homolog 1 (from UniProt Q9Z214 1-366)	binds
Kinesin heavy chain isoform 5 A (from UniProt Q6QLM7 1-1027)	binds
Microtubule-associated protein 1 A (from UniProt P34926 1-2774)	binds
Plasma membrane calcium-transporting ATPase 3 (from UniProt Q64568 1-1258)	binds
Proline-rich transmembrane protein 1 (from UniProt Q6MG82 1-306)	binds
Protein bassoon (from UniProt O88778 1-3938)	binds
Protein kinase C gamma type (from UniProt P63319 1-697)	binds
Rabphilin-3A (from UniProt P47709 1-684)	binds
Sodium/calcium exchanger 2 (from UniProt P48768 21-921)	binds
Sodium/potassium-transporting ATPase subunit alpha-3 (from UniProt P06687 1-1013)	binds
Synapsin-2 (from UniProt Q63537 1-586)	binds
Synaptic vesicle glycoprotein 2B (from UniProt Q63564 1-683)	binds
Synaptophysin (from UniProt P07825 1-307)	binds
Synaptosomal-associated protein 25 (from UniProt P60881 1-206)	binds
Synaptotagmin-2 (from UniProt P29101 1-422)	binds
Syntaxin-1B (from UniProt P61265 1-288)	binds
Syntaxin-binding protein 1 (from UniProt P61765 1-594)	binds
Tubulin beta-2A chain (from UniProt P85108 1-445)	binds
Voltage-dependent calcium channel gamma-2 subunit (from UniProt Q71RJ2 1-323)	binds
dihydropyridine-sensitive L-type, calcium channel alpha-2/delta subunit (from UniProt P54290 25-1091)	binds

Other lines, results leading:

binding	Substance
binds	Arf-GAP with GTPase, ANK repeat and PH domain-containing protein 2 (from UniProt Q8CGU4 1-1186)
binds	Brevican core protein (from UniProt P55068 23-883)
binds	Calcium-dependent secretion activator 1 (from UniProt Q62717 1-1289)
binds	Complexin-1 (from UniProt P63041 1-134)
binds	Connector enhancer of kinase suppressor of ras 2 (from UniProt Q9Z1T4 1-1032)
binds	Dihydropyrimidinase-related protein 1 (from UniProt Q62950 1-572)
binds	Disks large-associated protein 1 (from UniProt P97836 1-992)
binds	ELAV-like protein 2 (from UniProt Q8CH84 1-359)
binds	Endophilin-A1 (from UniProt O35179 1-352)
binds	Glutamate receptor 1 (from UniProt P19490 19-907)
binds	Glutamate receptor ionotropic, NMDA 1 (from UniProt P35439 19-938)
binds	Glutamate receptor ionotropic, NMDA 2B (from UniProt Q00960 27-1482)
binds	Guanine nucleotide-binding protein G (from UniProt P19627 1-355)
binds	Kinesin heavy chain isoform 5 C (from UniProt P56536 1-955)
binds	Kinesin light chain 1 (from UniProt P37285 1-560)
binds	Microtubule-associated protein 1B (from UniProt P15205 1-2461)
binds	Myelin basic protein (from UniProt P02688 1-195)
binds	Neural cell adhesion molecule 1 (from UniProt P13596 20-858)

binding	Substance
binds	Neurocan core protein (from UniProt P55067 23-1257)
binds	Neuronal-specific septin-3 (from UniProt Q9WU34 1-358)
binds	Plasma membrane calcium-transporting ATPase 2 (from UniProt P11506 1-1243)
binds	Potassium voltage-gated channel subfamily A member 1 (from UniProt P10499 1-495)
binds	Protein piccolo (from UniProt Q9JKS6 1-5085)
binds	Regulating synaptic membrane exocytosis protein 1 (from UniProt Q9JIR4 1-1615)
binds	Sodium/potassium-transporting ATPase subunit alpha-2 (from UniProt P06686 1-1020)
binds	Sodium/potassium-transporting ATPase subunit beta-2 (from UniProt P13638 1-290)
binds	Synapsin-1 (from UniProt P09951 1-704)
binds	Synaptic vesicle glycoprotein 2 A (from UniProt Q02563 1-742)
binds	Synaptotagmin-1 (from UniProt P21707 1-421)
binds	Synaptotagmin-7 (from UniProt Q62747 1-403)
binds	Tubulin beta-2B chain (from UniProt Q3KRE8 1-445)
binds	Tubulin beta-3 chain (from UniProt Q4QRB4 1-450)
binds	Vesicle-fusing ATPase (from UniProt Q9QUL6 1-744)
binds	Visinin-like protein 1 (from UniProt P62762 1-191)
binds	serine/threonine-protein phosphatase PP1-alpha catalytic subunit (from UniProt P62138 1-330)
